Test results: US20180258114

The chains behind the UniProt entries cited, without tags or fusion partners. Where a name states a change or a piece, a line headed by the entry shows the natural chain unless it says otherwise.
UniProt P00970: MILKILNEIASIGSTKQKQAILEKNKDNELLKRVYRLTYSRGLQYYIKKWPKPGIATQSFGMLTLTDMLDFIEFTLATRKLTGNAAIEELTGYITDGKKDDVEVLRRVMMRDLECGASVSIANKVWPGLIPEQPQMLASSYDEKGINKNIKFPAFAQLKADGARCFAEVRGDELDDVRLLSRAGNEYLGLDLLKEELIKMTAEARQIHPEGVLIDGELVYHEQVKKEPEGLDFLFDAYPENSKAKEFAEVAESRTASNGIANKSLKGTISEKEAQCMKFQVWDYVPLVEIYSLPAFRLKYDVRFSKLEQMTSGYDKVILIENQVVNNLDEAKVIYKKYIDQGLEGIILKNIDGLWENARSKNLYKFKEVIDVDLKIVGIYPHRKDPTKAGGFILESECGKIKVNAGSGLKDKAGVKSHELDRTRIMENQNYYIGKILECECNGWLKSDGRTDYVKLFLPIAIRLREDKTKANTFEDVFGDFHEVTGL

Molecular target: T4 DNA ligase (UniProt P00970)
Test: EMSA
Conditions: ATP, 37 C 24 h, purified recombinant protein

Row | Sequence | activity on this sequence (5' monophosphate linker on ligation strand, anchor on gold nanoparticle, ligation, 1% agarose gel shift of nanoparticle, strands as in FIG. 7) | activity on this sequence (on gold nanoparticle, terminal 3'-OH, ligation of linker-modified peptide and Cy3 to DNA-NP, agarose gel shift, presence of bridge strand not stated, single-stranded DNA)
1 | TTTTTTTTTTCAATCACAACCA / CGTCATCAACGATGGTTGTGATTG / TCGTTGATGACGCTAGCTAGAC [nicked anchor/bridge/mp-ligation DNA on gold nanoparticle] | active | 
2 | TTTTTTTTTTCAATCACAACCA |  | active
